From PubChem BioAssay record AID504749 (NCATS, 2011).

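A panel of P. falciparum strains inside erythrocytes is exposed to compounds for three days, then a DNA-binding dye reports the amount of parasite DNA.
Each compound was titrated across a series from about 0.000037 to 29 µM.
The number is the fitted AC50, the concentration giving a half-maximal change in signal; a lower value means higher potency, whether the curve shows a decrease or an increase.
Calls follow the curve class and fit quality: every row here is inconclusive, covering signal-raising curves and weak, poorly fitted, partial or highest-dose-only inhibition curves.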

Values are in µM.
All entries here are filed as inconclusive.
These entries are mostly ones the record files as inconclusive; other results of the assay are not listed here.
Potencies fitted to partial, single-point or poorly fitting curves are rough.

SMILES	condition	Potency (µM)	curve
CCN(CC)CCC[C@H](C)Nc1ccnc2cc(Cl)ccc12	ATS189	12.59	inhibitor, single point
CCN(CC)CCC[C@H](C)Nc1ccnc2cc(Cl)ccc12	CP203	16.94	inhibitor, single point
CCN(CC)CCC[C@H](C)Nc1ccnc2cc(Cl)ccc12	SC27B	14.13	inhibitor, single point
CCN(CC)CCC[C@H](C)Nc1ccnc2cc(Cl)ccc12	CP217	11.22	inhibitor, single point
CCN(CC)CCC[C@H](C)Nc1ccnc2cc(Cl)ccc12	CP215	16.94	inhibitor, single point
CCN(CC)CCC[C@H](C)Nc1ccnc2cc(Cl)ccc12	CP315	19.01	inhibitor, single point
CCN(CC)CCC[C@H](C)Nc1ccnc2cc(Cl)ccc12	CP252	10	inhibitor, single point
C=C1CC[C@H](O)C/C1=C/C=C1\CCC[C@]2(C)[C@@H]([C@H](C)CCCC(C)(C)O)CC[C@@H]12	CP237	17.78	inhibitor, single point
C=C1CC[C@H](O)C/C1=C/C=C1\CCC[C@]2(C)[C@@H]([C@H](C)CCCC(C)(C)O)CC[C@@H]12	P93_24	10	inhibitor, single point
C=C1CC[C@H](O)C/C1=C/C=C1\CCC[C@]2(C)[C@@H]([C@H](C)CCCC(C)(C)O)CC[C@@H]12	HB3	12.59	inhibitor, single point
C=C1CC[C@H](O)C/C1=C/C=C1\CCC[C@]2(C)[C@@H]([C@H](C)CCCC(C)(C)O)CC[C@@H]12	CP238	17.78	inhibitor, single point
C=C1CC[C@H](O)C/C1=C/C=C1\CCC[C@]2(C)[C@@H]([C@H](C)CCCC(C)(C)O)CC[C@@H]12	CP217	10	inhibitor, single point
C=C1CC[C@H](O)C/C1=C/C=C1\CCC[C@]2(C)[C@@H]([C@H](C)CCCC(C)(C)O)CC[C@@H]12	CP185	14.13	inhibitor, single point
C=C1CC[C@H](O)C/C1=C/C=C1\CCC[C@]2(C)[C@@H]([C@H](C)CCCC(C)(C)O)CC[C@@H]12	SC27B	11.22	inhibitor, single point
C=C1CC[C@H](O)C/C1=C/C=C1\CCC[C@]2(C)[C@@H]([C@H](C)CCCC(C)(C)O)CC[C@@H]12	CP286	17.78	inhibitor, single point
C=C1CC[C@H](O)C/C1=C/C=C1\CCC[C@]2(C)[C@@H]([C@H](C)CCCC(C)(C)O)CC[C@@H]12	3D7	17.78	inhibitor, single point
C=C1CC[C@H](O)C/C1=C/C=C1\CCC[C@]2(C)[C@@H]([C@H](C)CCCC(C)(C)O)CC[C@@H]12	CP256	12.59	inhibitor, single point
C=C1CC[C@H](O)C/C1=C/C=C1\CCC[C@]2(C)[C@@H]([C@H](C)CCCC(C)(C)O)CC[C@@H]12	PC15	11.22	inhibitor, single point
C=C1CC[C@H](O)C/C1=C/C=C1\CCC[C@]2(C)[C@@H]([C@H](C)CCCC(C)(C)O)CC[C@@H]12	GB4	16.94	inhibitor, single point
C=C1CC[C@H](O)C/C1=C/C=C1\CCC[C@]2(C)[C@@H]([C@H](C)CCCC(C)(C)O)CC[C@@H]12	CP252	17.78	inhibitor, single point
C=C1CC[C@H](O)C/C1=C/C=C1\CCC[C@]2(C)[C@@H]([C@H](C)CCCC(C)(C)O)CC[C@@H]12	CP215	8.492	inhibitor, partial curve, poor fit
C=C1CC[C@H](O)C/C1=C/C=C1\CCC[C@]2(C)[C@@H]([C@H](C)CCCC(C)(C)O)CC[C@@H]12	ATS95	11.22	inhibitor, single point
C=C1CC[C@H](O)C/C1=C/C=C1\CCC[C@]2(C)[C@@H]([C@H](C)CCCC(C)(C)O)CC[C@@H]12	CP191	10	inhibitor, single point
C=C1CC[C@H](O)C/C1=C/C=C1\CCC[C@]2(C)[C@@H]([C@H](C)CCCC(C)(C)O)CC[C@@H]12	ATS189	11.22	inhibitor, single point
OCc1cc(C(O)CNCCCCCCOCCCCc2ccccc2)ccc1O (stereo not given)	CP211	16.94	inhibitor, partial curve, poor fit
OCc1cc(C(O)CNCCCCCCOCCCCc2ccccc2)ccc1O (stereo not given)	DIV17	19.01	inhibitor, single point
OCc1cc(C(O)CNCCCCCCOCCCCc2ccccc2)ccc1O (stereo not given)	CP256	17.78	inhibitor, single point
OCc1cc(C(O)CNCCCCCCOCCCCc2ccccc2)ccc1O (stereo not given)	DIV30	15.1	inhibitor, single point
OCc1cc(C(O)CNCCCCCCOCCCCc2ccccc2)ccc1O (stereo not given)	CP262	19.01	inhibitor, partial curve, poor fit
OCc1cc(C(O)CNCCCCCCOCCCCc2ccccc2)ccc1O (stereo not given)	W2	12	inhibitor, single point

Repeated from the top, 3 entries:

| SMILES | condition | Potency (µM) | curve |
|---|---|---|---|
| `CCN(CC)CCC[C@H](C)Nc1ccnc2cc(Cl)ccc12` | ATS189 | 12.59 | inhibitor, single point |
| `CCN(CC)CCC[C@H](C)Nc1ccnc2cc(Cl)ccc12` | CP203 | 16.94 | inhibitor, single point |
| `CCN(CC)CCC[C@H](C)Nc1ccnc2cc(Cl)ccc12` | SC27B | 14.13 | inhibitor, single point |